# Measurements from paper PMC4076021 (ACS chemical biology, 2014).
# System: H460 cells
smiles,measurement,setting,value
O=C(CCCCCCC(=O)Nc1ccccc1)NO [SAHA],combination effect on inhibition of H460 cell proliferation (in words),,moderate antagonism
same,combination index (CI),"in combination with bizine, H460, 48 h, all ratios examined",> 1
